Measured values taken from publication PMC5131917.

By UniProt entry, the sequences of proteins in these tests, tags left out. Where a name states a change or a piece, a line headed by the entry shows the natural chain unless it says otherwise.
UniProt P12004: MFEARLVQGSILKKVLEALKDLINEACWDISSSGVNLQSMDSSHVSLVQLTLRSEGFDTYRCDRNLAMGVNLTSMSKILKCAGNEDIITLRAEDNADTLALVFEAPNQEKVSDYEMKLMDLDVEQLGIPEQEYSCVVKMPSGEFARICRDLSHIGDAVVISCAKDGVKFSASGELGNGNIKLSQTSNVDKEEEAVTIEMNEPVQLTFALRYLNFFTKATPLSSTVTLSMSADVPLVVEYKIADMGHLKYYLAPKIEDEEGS
UniProt Q6IQ49: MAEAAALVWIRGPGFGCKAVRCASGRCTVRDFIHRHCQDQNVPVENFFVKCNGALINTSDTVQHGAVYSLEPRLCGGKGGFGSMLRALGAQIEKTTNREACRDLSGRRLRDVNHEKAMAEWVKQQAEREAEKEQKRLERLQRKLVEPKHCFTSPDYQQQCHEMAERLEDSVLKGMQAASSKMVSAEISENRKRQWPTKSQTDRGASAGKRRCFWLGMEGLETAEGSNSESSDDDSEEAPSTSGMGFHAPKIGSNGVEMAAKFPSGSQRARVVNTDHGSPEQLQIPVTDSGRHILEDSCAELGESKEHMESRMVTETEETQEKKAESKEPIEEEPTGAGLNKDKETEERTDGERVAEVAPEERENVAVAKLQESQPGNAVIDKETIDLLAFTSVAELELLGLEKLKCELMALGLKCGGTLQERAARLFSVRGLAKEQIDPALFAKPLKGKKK
UniProt Q9NZJ0: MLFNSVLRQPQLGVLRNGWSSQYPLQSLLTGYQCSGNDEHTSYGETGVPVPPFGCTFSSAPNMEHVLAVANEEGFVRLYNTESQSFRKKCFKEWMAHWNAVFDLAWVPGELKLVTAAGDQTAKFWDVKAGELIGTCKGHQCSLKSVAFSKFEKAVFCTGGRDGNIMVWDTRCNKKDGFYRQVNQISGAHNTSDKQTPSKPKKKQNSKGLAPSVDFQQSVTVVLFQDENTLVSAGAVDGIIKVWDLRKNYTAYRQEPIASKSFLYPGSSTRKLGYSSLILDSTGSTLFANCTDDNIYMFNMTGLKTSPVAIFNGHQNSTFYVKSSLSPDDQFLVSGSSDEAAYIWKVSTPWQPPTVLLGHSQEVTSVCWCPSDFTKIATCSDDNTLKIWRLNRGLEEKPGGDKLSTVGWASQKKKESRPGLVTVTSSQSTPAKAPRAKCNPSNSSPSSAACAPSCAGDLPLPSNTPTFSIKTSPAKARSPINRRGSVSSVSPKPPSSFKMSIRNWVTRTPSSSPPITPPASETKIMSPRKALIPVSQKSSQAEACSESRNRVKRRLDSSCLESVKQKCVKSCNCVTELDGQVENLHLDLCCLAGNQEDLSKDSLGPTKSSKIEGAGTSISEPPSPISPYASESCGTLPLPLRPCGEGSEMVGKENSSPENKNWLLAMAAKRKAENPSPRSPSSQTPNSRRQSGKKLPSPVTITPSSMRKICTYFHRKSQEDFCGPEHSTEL

What was measured:
GST-PCNA = GST-PCNA (UniProt P12004); assay: pull-down; GST-PCNA (or GST) bound to glutathione-sepharose beads, incubated with 293T cell lysates in NETN150 buffer (1% NP40, 150 mM NaCl, 0.1 mM EDTA, 50 mM Tris pH 7.5) for 3 h at 4°C, three washes, Western blotting; only the target purified
[1] = target: Flag-tagged SDE2 with the SAP domain deleted (ΔSAP) (human) (UniProt Q6IQ49); assay: co-IP; 293T cells co-expressing HA-CDT2 and Flag-SDE2 variants, 10 uM MG132 for 4 h; lysis in NETN150 buffer, anti-Flag M2 affinity gel, four washes, Western blotting
[2] = target: C-terminally Flag-tagged SDE2 (wild type) (human) (UniProt Q6IQ49); assay: as above

Substance | binding (GST-PCNA) | binding [1] | binding [2]
GFP-SDE2 GA (full-length SDE2, diglycine Gly76 & 77 mutated to alanines) (from UniProt Q6IQ49-1) | binds |  | 
GFP-SDE2 GA + PIP (F47A & F48A) (from UniProt Q6IQ49-1) | no binding |  | 
HA-CDT2 (from UniProt Q9NZJ0 1-730) |  | no binding | binds

Results are given in words; binding and its absence hold for the method and conditions named. Binding seen in cells or lysates may run through a third protein. For some of these results: A result given as binding can be weak or reduced; the word gives no strength.
